Experimental data from patent publication US7041470B2, “Method of assaying the susceptibility of biofilms to anti-microbial agents” (University Technologies International, Inc., priority 1996, dated 2006).

Key:
Settings in all cases: 490 nm
[1] = system: staph. aureus biofilm; test: staph. aureus biofilm, optical density reading of turbidity; format: cell-based, staphylococcus aureus
Experimental: Up to 8 different antibiotics or biocides can be tested by using 1 row (A-H) for each antimicrobial reagent. […] Rinse the remaining projections in PBS using a troughed vessel 20 and place the colonized projections into the 96 well antibiotic plate and incubate overnight at 37° C. […] (3) From the freshly sonicated plate remove 0.02 ml of the medium from each well and spot plate neat; and 0.025 ml from each well to prepare a serial dilution (10^−1 to 10^−6) and spot plate 0.02 ml (dilutions can be done in microtiter plates, one for each antibiotic). Place the plate containing the remaining medium and bacteria to incubate at 37° C., overnight. Day 4: Assay the sessile survival, by for example reading the plate incubated overnight at 490 nm or by counting the colonies on the plates to determine the actual number of surviving bacteria, or by using some other method known in the art.

[2] = system: staph. aureus planktonic bacteria; test: staph. aureus planktonic bacteria, optical density reading of turbidity; format: cell-based, staphylococcus aureus
Experimental: (§1) Up to 8 different antibiotics or biocides can be tested by using 1 row (A-H) for each antimicrobial reagent. […] Rinse the remaining projections in PBS using a troughed vessel 20 and place the colonized projections into the 96 well antibiotic plate and incubate overnight at 37° C.

[3] = system: Escherichia coli planktonic bacteria; test: Escherichia coli planktonic bacteria, optical density reading of turbidity; format: cell-based
Experimental: as §1

[4] = well 5 of doubling dilutions, well 3: 1000 μg/mL to well 12: 2 μg/mL
[5] = well 6 of doubling dilutions, well 3: 1000 μg/mL to well 12: 2 μg/mL ([…] implied)
[6] = well 7 of doubling dilutions, well 3: 1000 μg/mL to well 12: 2 μg/mL
[7] = well 8 of doubling dilutions, well 3: 1000 μg/mL to well 12: 2 μg/mL
[8] = well 9 of doubling dilutions, well 3: 1000 μg/mL to well 12: 2 μg/mL
[9] = well 10 of doubling dilutions, well 3: 1000 μg/mL to well 12: 2 μg/mL ([…] implied)
[10] = well 11 of doubling dilutions, well 3: 1000 μg/mL to well 12: 2 μg/mL

O=C(O)c1cn(C2CC2)c2cc(N3CCNCC3)c(F)cc2c1=O [G, Ciprofloxacin]
optical density reading of turbidity, staph. aureus biofilm ([1]; well 3: 1000 μg/mL antibiotic): .073 | optical density reading of turbidity, staph. aureus biofilm ([1]; well 4: 500 μg/mL antibiotic): .072 | optical density reading of turbidity, staph. aureus biofilm [1, 4]: .073 | optical density reading of turbidity, staph. aureus biofilm [1, 5]: .778 | optical density reading of turbidity, staph. aureus biofilm [1, 6]: .822 | optical density reading of turbidity, staph. aureus biofilm [1, 7]: .793 | optical density reading of turbidity, staph. aureus biofilm [1, 8]: .121 | optical density reading of turbidity, staph. aureus biofilm [1, 9]: .071 | optical density reading of turbidity, staph. aureus biofilm [1, 10]: .072 | optical density reading of turbidity, staph. aureus biofilm ([1]; well 12: 2 μg/mL antibiotic): .068 | optical density reading of turbidity, staph. aureus planktonic bacteria ([2]; well 3: 1000 μg/mL antibiotic): .094 | optical density reading of turbidity, staph. aureus planktonic bacteria ([2]; well 4: 500 μg/mL antibiotic): .072 | optical density reading of turbidity, staph. aureus planktonic bacteria [2, 4]: .077 | optical density reading of turbidity, staph. aureus planktonic bacteria [2, 5]: .077 | optical density reading of turbidity, staph. aureus planktonic bacteria [2, 6]: .079 | optical density reading of turbidity, staph. aureus planktonic bacteria [2, 7]: .077 | optical density reading of turbidity, staph. aureus planktonic bacteria [2, 8]: .077 | optical density reading of turbidity, staph. aureus planktonic bacteria [2, 9]: .080 | optical density reading of turbidity, staph. aureus planktonic bacteria [2, 10]: .074 | optical density reading of turbidity, staph. aureus planktonic bacteria ([2]; well 12: 2 μg/mL antibiotic): .069 | optical density reading of turbidity, Escherichia coli planktonic bacteria ([3]; well 3: 1000 μg/mL antibiotic): .131 | optical density reading of turbidity, Escherichia coli planktonic bacteria ([3]; well 4: 500 μg/mL antibiotic): .136 | optical density reading of turbidity, Escherichia coli planktonic bacteria [3, 4]: .136 | optical density reading of turbidity, Escherichia coli planktonic bacteria [3, 5]: .140 | optical density reading of turbidity, Escherichia coli planktonic bacteria [3, 6]: .132 | optical density reading of turbidity, Escherichia coli planktonic bacteria [3, 7]: .139 | optical density reading of turbidity, Escherichia coli planktonic bacteria [3, 8]: .136 | optical density reading of turbidity, Escherichia coli planktonic bacteria [3, 9]: .138 | optical density reading of turbidity, Escherichia coli planktonic bacteria [3, 10]: .133 | optical density reading of turbidity, Escherichia coli planktonic bacteria ([3]; well 12: 2 μg/mL antibiotic): .138
